PubChem BioAssay AID652259, Drosophila RNAi Screening Center, 2013
The screen tested about 22,000 reagents; shown is a random part of those that have a named target and a result. Of all reagents, 233 (1.1%) are marked active. 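Light values are raw, unnormalised plate reads; the ratio scores behind the reporter calls were not deposited.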 A number with no mark means an inactive call. Not given: the amount of reagent, the time to read-out, the dose of the treatment.

Screen: 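Genome-wide hunt for genes that control Wingless pathway activity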 (primary screen)
Cells: Drosophila clone 8 imaginal disc epithelial cells
Knock-down reagent: long dsRNA against Drosophila genes
Challenge: pathway stimulated by co-transfected Wingless expression plasmid
Measured: 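Dual luciferase reads per well after Wingless plasmid stimulation: reporter firefly light and Renilla control light; activity is firefly divided by Renilla, a ratio not deposited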
Scale: firefly reporter light: higher = more Wg reporter light, before normalisation; Renilla control light: higher = more transfected or surviving cells
Active means: 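Strong candidates differ from their plate mean by at least two out of four per-plate statistical tests; weak candidates meet just one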
Calls: active = candidate regulator (raises or lowers reporter); inactive = not a candidate

Cbp20 (GeneID 42166) [DRSC16601] — firefly reporter light, replicate 1: 14390; Renilla control light, replicate 1: 2812
lic (GeneID 32257) [DRSC20347] — firefly reporter light, replicate 1: 1698; firefly reporter light, replicate 2: 7846; Renilla control light, replicate 1: 716; Renilla control light, replicate 2: 1927
rho (GeneID 38168) [DRSC08734] — firefly reporter light, replicate 1: 7906; Renilla control light, replicate 1: 2880
CG12546 (GeneID 40483) [DRSC11676] — firefly reporter light, replicate 1: 14615; Renilla control light, replicate 1: 3962
Gug (GeneID 46156) [DRSC11179] — firefly reporter light, replicate 1: 2067; firefly reporter light, replicate 2: 5408; Renilla control light, replicate 1: 1305; Renilla control light, replicate 2: 3104
Mst89B (GeneID 41972) [DRSC16748] — firefly reporter light, replicate 1: 18603; Renilla control light, replicate 1: 4413
CG18273 (GeneID 30991) [DRSC18150] — firefly reporter light, replicate 1: 15570; Renilla control light, replicate 1: 12509
CG18273 (GeneID 30991) [DRSC18505] — firefly reporter light, replicate 1: 3442; firefly reporter light, replicate 2: 9515; Renilla control light, replicate 1: 1526; Renilla control light, replicate 2: 3001
Mpc1 (GeneID 42268) [DRSC14770] — firefly reporter light, replicate 1: 3377; firefly reporter light, replicate 2: 6140; Renilla control light, replicate 1: 1504; Renilla control light, replicate 2: 1522
PCID2 (GeneID 39306) [DRSC10822] — firefly reporter light, replicate 1: 2345; Renilla control light, replicate 1: 1265
GstD4 (GeneID 48337) [DRSC16685] — firefly reporter light, replicate 1: 20544; Renilla control light, replicate 1: 5207
Faf2 (GeneID 35129) [DRSC03325] — firefly reporter light, replicate 1: 9370; Renilla control light, replicate 1: 2262
LysB (GeneID 38125) [DRSC08673] — firefly reporter light, replicate 1: 4992; Renilla control light, replicate 1: 2281
tim (GeneID 33571) [DRSC00841] — firefly reporter light, replicate 1: 12376; Renilla control light, replicate 1: 5248
CG1571 (GeneID 31725) [DRSC18068] — firefly reporter light, replicate 1: 16003; Renilla control light, replicate 1: 8273
CG15760 (GeneID 32324) [DRSC19725] — firefly reporter light, replicate 1: 21861; Renilla control light, replicate 1: 11330
CG13309 (GeneID 39012) [DRSC09980] — firefly reporter light, replicate 1: 1402; firefly reporter light, replicate 2: 4548; Renilla control light, replicate 1: 1148; Renilla control light, replicate 2: 2348
Peritrophin-15b (GeneID 50432) [DRSC02266] — firefly reporter light, replicate 1: 2818; firefly reporter light, replicate 2: 7152; Renilla control light, replicate 1: 656; Renilla control light, replicate 2: 3605
Gem2 (GeneID 40087) [DRSC09721] — firefly reporter light, replicate 1: 4378; Renilla control light, replicate 1: 1972
CG8519 (GeneID 38745) [DRSC10985] — firefly reporter light, replicate 1: 1604; firefly reporter light, replicate 2: 5673; Renilla control light, replicate 1: 1370; Renilla control light, replicate 2: 2692
Elba2 (GeneID 33442) [DRSC00731] — firefly reporter light, replicate 1: 9664; Renilla control light, replicate 1: 3401
CG33752 (GeneID 3771860) [DRSC05351] — firefly reporter light, replicate 1: 16329; Renilla control light, replicate 1: 12899
CG2790 (GeneID 37992) [DRSC04045] — firefly reporter light, replicate 1: 12736; Renilla control light, replicate 1: 3856
Rab6 (GeneID 34636) [DRSC03404] — firefly reporter light, replicate 1: 8178; Renilla control light, replicate 1: 2568
CG7720 (GeneID 42257) [DRSC16306] — firefly reporter light, replicate 1: 3090; firefly reporter light, replicate 2: 7558; Renilla control light, replicate 1: 2214; Renilla control light, replicate 2: 1522
CG7720 (GeneID 42257) [DRSC16307] — firefly reporter light, replicate 1: 3271; Renilla control light, replicate 1: 869

Part of the list above in another layout.
| gene | DRSC id | firefly reporter light, replicate 1 | firefly reporter light, replicate 2 | Renilla control light, replicate 1 | Renilla control light, replicate 2 |
| --- | --- | --- | --- | --- | --- |
| Gug (GeneID 46156) | DRSC11179 | 2067 | 5408 | 1305 | 3104 |
| Mst89B (GeneID 41972) | DRSC16748 | 18603 | – | 4413 | – |
| CG18273 (GeneID 30991) | DRSC18150 | 15570 | – | 12509 | – |
